## Library screening results

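Viability assay of Plasmodium falciparum sporozoites; the read-out is not stated. The concentration is filed as 10 mM, unlikely as a test dose, so the dose is not known. The record gives no direction; compounds that gave an IC50 in retests scored well above the rest, so higher reads as lower viability. Strong results were mostly tested again. About 34,000 compounds were tested under these conditions; 0.84% (about 280) showed 50% or more at least once.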

Results are given as percent effect. The controls that fix the scale are not given in the record; negative values are as filed. This is an unselected part of the compounds tested. Two or more numbers in one place are separate tests of the same structure; such repeats can differ widely.

| # | compound | percent effect |
|---|---|---|
| 1 | `Cc1nc(CN2CC[C@H](OCC3CC3)[C@@H]2Cc2cccnc2)cs1.O=C(O)C(F)(F)F.O=C(O)C(F)(F)F` | 8.684 |
| 2 | `COC(=O)CNCC1(O)CCCN(Cc2cccc(F)c2F)C1=O` (stereo not shown) | -4.852 |
| 3 | `CCn1cnnc1C1CCN(C(=O)c2cccc(OC)c2OC)CC1` | -3.123 |
| 4 | `CN(Cc1cn2c(n1)CN(CC1CC1)CC2)Cc1ccco1.O=C(O)C(F)(F)F.O=C(O)C(F)(F)F` | -22.95 |
| 5 | `O=C(c1cccc2[nH]ccc12)N1CCC2(CCOC2)C1` (stereo not shown) | 0.3552 |
| 6 | `Cc1ccoc1-c1nnc(CNCC2CCCN2c2cccnn2)o1` (stereo not shown) | -13.19 |
| 7 | `O=C(CN1CCCCC1Cn1cncn1)NC1CCN(C2CC2)CC1` (stereo not shown) | 4.353 |
| 8 | `COCCN1CC[C@]2(CN(C(=O)c3ccc[nH]3)C[C@H]2C)C1=O` | 4.333 |
| 9 | `Cc1ccccc1OCC(=O)N1CCCC(CNS(C)(=O)=O)C1` (stereo not shown) | 5.615 |
| 10 | `NC(=O)C(NC(=O)c1ccc(NC2CC2)nc1)c1ccccc1` (stereo not shown) | -3.403 |
| 11 | `O=C(NC[C@@H]1CCCO1)c1cc(Br)cnc1N1CCCCC1` | -10.74 |
| 12 | `O=C(CCc1ccccc1)C1CCCN(C(=O)c2ncc(F)cc2F)C1` (stereo not shown) | -9.563 |
| 13 | `Cc1ccc(-n2nnc(CC(=O)N3CCN(C(C)C)CC3)c2C)cc1` | -4.669 and -14.84 |
| 14 | `Cc1cccc(CS(=O)(=O)NCC(O)Cc2ccccc2)c1` (stereo not shown) | -10.27 |
| 15 | `CC(C)n1ccnc1C1CCN(C(=O)c2cc[nH]n2)CC1` | -0.7277 |
| 16 | `Cn1cccc1C(=O)N1CCC(c2nccn2Cc2ccncc2)CC1` | -10.26 |
| 17 | `CN(C)CC(=O)N1CCC2(CCN(Cc3cccc(F)c3)CC2)C1` | 10.42 |
| 18 | `CC(C)N1CCc2c(CN(C)Cc3ccco3)cncc2C1.Cl.Cl.Cl` | -1.84 |
| 19 | `CN(C)CC(=O)N1Cc2nc(C(=O)N3CCCN(C)CC3)oc2C1` | -6.13 |
| 20 | `Cc1nc(CCCNC(=O)C2CC(=O)N(C3CC3)C2)sc1C` (stereo not shown) | -1.777 |
| 21 | `Cc1cnc(N2CCCC3(COCCN(c4nccs4)C3)C2)nc1` (stereo not shown) | 5.877 |
| 22 | `CCC(O)CN1CCN(C(=O)c2sccc2OC)CC1` (stereo not shown) | 5.511 |
| 23 | `Cc1nc(C(=O)N2CC[C@@]3(C[C@@H](NS(C)(=O)=O)CCO3)C2)cs1` | -5.584 |
| 24 | `Cc1nnc(NC(=O)CN2CCc3nn(C)c(=O)cc3C2)s1` | 2.148 |
| 25 | `OCc1nnc2n1CCN(c1cnccn1)C2` | -0.5199 |
| 26 | `Cl.c1cc(CNCc2cccc3c2OCCCO3)cc(Cn2cncn2)c1` | 1.374 |
| 27 | `O=C(CCn1c(C(F)F)cc2cccnc21)NC1CC1` | -5.329 |
| 28 | `CCN(CCNC(=O)c1cccnc1OCCOC)C1CC1` | -177.9 |
| 29 | `Cc1nc(CN2CCCC(NCCCOc3ccc(F)cc3)C2)no1` (stereo not shown) | -5.554 |
| 30 | `O=C1CCCc2cc(-c3csc(CCN4CCOC4=O)n3)ccc2N1` | 9.321 |
| 31 | `O=C(c1cc(Cl)c[nH]1)N1CCN(CCc2ccccn2)CC1` | -4.269 |
| 32 | `Cc1oncc1C(=O)N1CCc2ncnc(-c3cnn(C)c3)c2CC1.O=C(O)C(F)(F)F` | -5.175 |
| 33 | `COCC(=O)Nc1cc(Br)cnc1OCC(F)(F)F` | -17.46 |
| 34 | `O=C(CCn1c(C(F)F)cc2cccnc21)NC1CCCC1` | -5.453 |
| 35 | `CCOc1ccc(Cl)c(C(=O)N2CCCSCC2)n1` | -4.359 |
| 36 | `[H][C@]12CCN(C(=O)Nc3cccc(OC)c3)CC[C@@]1([H])S(=O)(=O)N(C)C2` | 2.483 |
| 37 | `Cc1cc(C)c2cc(CNCc3ccccc3)c3nn(C)c(=O)n3c2c1` | -7.701 |
| 38 | `CCC(CC)C(=O)Nc1ccc2oc(=O)n(CCN(C)C)c2c1` | -23.53 |
| 39 | `CCC(CC)c1nnc(NC(=O)N2CCCC(NC(C)=O)C2)s1` (stereo not shown) | 78.77 and 70.93 |
| 40 | `CC(C)(C)C(=O)NCC(=O)NCCc1nc(C(F)(F)F)cs1` | 3.259 |
| 41 | `O=C(CCc1cccnc1)N1CCCCC1c1ccn2ccnc2n1` (stereo not shown) | 5.463 |
| 42 | `CN1CCCN(S(=O)(=O)c2cn(C)cn2)c2cc(F)ccc21` | 2.997 |
| 43 | `COCc1noc(CCC(=O)c2ccc3c(c2)OCCO3)n1` | -3.708 and -4.973 |
| 44 | `CCCC1CCN(C(=O)c2coc(COc3ccc(OC)cc3)n2)C1` (stereo not shown) | -5.175 |
| 45 | `O=C(c1nc(Cc2c[nH]c3ccccc23)no1)N1CCCC1` | -10.16 |
| 46 | `Cc1csc2c(=O)n3c(nc12)CCN(C(=O)c1ccccn1)CC3` | 4.519 |
| 47 | `O=C(Nc1nc2c(s1)CN(S(=O)(=O)C1CC1)CC2)c1ccc(Cl)s1` | 40.04 and 36.25 |
| 48 | `CCOC(CC)C(=O)NCc1ccnc(Oc2ccc(F)cc2)c1` (stereo not shown) | -0.3529 |
| 49 | `CC(C)c1ccc(-c2nnn(CCNS(C)(=O)=O)n2)cc1` | -17.87 |
| 50 | `O=C(O)C(F)(F)F.[H][C@@]12CN(C(=O)c3cccnc3)C[C@]1([H])C(=O)N(Cc1cccc(F)c1)C2` | 3.924 |
| 51 | `O=C1CCC2(CCCN(C(=O)c3cccs3)C2)N1` (stereo not shown) | -10.27 |
| 52 | `Cn1cc(CNc2ncnc3c2CCN(Cc2ccsc2)CC3)cn1` | -0.4292 |
| 53 | `CCn1ncc(-c2cc(C(F)F)n3nc(CCC(=O)O)nc3n2)c1C` | 6.22 |
| 54 | `CN1CCN(C)C2(CCN(C(=O)CC(F)(F)F)CC2)C1=O` | 1.798 |
| 55 | `CCn1cnnc1C1CCN(C(=O)c2cc3c(s2)CCCC3)CC1` | 7.138 |
| 56 | `COCC(=O)N1CCCCC1c1nc(C)c2c(n1)N(C1CC1)C(=O)CC2` (stereo not shown) | -2.091 |
| 57 | `N#Cc1ccc(OCCOc2ccccc2C(=O)N2CCOCC2)cc1` | -10.03 |
| 58 | `CN(C)C(=O)CN1CCOCC2(C1)CN(c1ncc(F)cn1)CCO2.O=C(O)C(F)(F)F` (stereo not shown) | 9.457 |
| 59 | `CC(C)Oc1ncccc1CNC(=O)N1CCC1` | 10.34 |
| 60 | `COc1ccc(C(=O)NCCCn2ccnc2)c(OC)n1` | 1.466 |
| 61 | `COCC1CC2(CCN(Cc3ccc(OC)cc3)CC2)CN1C(C)C.O=C(O)C(F)(F)F.O=C(O)C(F)(F)F` (stereo not shown) | -7.271 |
| 62 | `O=C(O)C(F)(F)F.[H][C@@]12COC[C@H](C(=O)N3CCCCO3)[C@]1([H])CN(Cc1ccc(C)o1)C2` | -11.42 and -12.39 and -13.97 |
| 63 | `COc1ccc(OC)c(Sc2ncccc2C(=O)NCCSC)c1` | -1.908 |
| 64 | `c1ccc(CCN2CCCC2c2cccc(Nc3nccs3)n2)cc1` (stereo not shown) | -2.567 |
| 65 | `CCS(=O)(=O)N1CCC2(CN(Cc3ccc(C)o3)C2)C1` | -6.684 |
| 66 | `O=C(O)C(F)(F)F.O=C(O)C(F)(F)F.O=C(O)C(F)(F)F.[H][C@@]12C[C@@H](Oc3cccc(F)c3)CN1CCN(Cc1ccncc1)C2` | -1.599 |
| 67 | `O=C(O)C(F)(F)F.c1coc(CN2CCCn3c(nnc3Cn3cccc3)C2)c1` | 2.6 |
| 68 | `O=C(CCn1cncn1)N1CCCC1c1noc(C2CC2)n1` (stereo not shown) | 4.535 |
| 69 | `CCCn1nc2c(cc1=O)CN(Cc1nc(-c3ccco3)no1)CC2` | 11.95 |
| 70 | `O=C(c1cccc2c1OCCO2)N1CCCC(n2cccn2)C1` (stereo not shown) | -4.739 and 7.618 and -11.41 |
| 71 | `Cc1cc(C)c(CNC(=O)NCc2ccc(F)c(C)c2)c(=O)[nH]1` | 5.922 |
| 72 | `Cc1nc(CN2CCC3(CCCO3)CC2)c2ccccn12` | 6.912 |
| 73 | `COc1cccc(N2CCC(CNC(=O)NCc3ccco3)C2)c1` (stereo not shown) | 11.9 |
| 74 | `CN(Cc1ccc2c(c1)OCCO2)Cc1nc2c(cnn2C)c(=O)[nH]1` | -4.399 |
| 75 | `CCN1CCN(c2ccc(CNC(=O)c3cnn(C)c3C)cn2)CC1` | 5.849 |
| 76 | `N#Cc1ccc(N2CCCN(CC(=O)N3CCC3)CC2)cc1` | 1.891 |
| 77 | `[H][C@]12CN(Cc3ccccn3)CCN1C[C@@H](c1ccccc1)[C@@H]2C(=O)NC` | -29.16 |
| 78 | `CC(=O)N1CCC(CN2CCN(Cc3nccn3C)C(C)C2)CC1` (stereo not shown) | 0.5848 |
| 79 | `CC(C)NC(=O)C1CN(C(=O)Nc2ccccc2)CC12CCOCC2` (stereo not shown) | 10.63 |
| 80 | `O=C(NCCN1CCOCC1)N(CCCO)C1CCCc2ccccc21` (stereo not shown) | -14.46 |
| 81 | `CC(C)c1n[nH]c(C2CN(C(=O)c3csnn3)CCO2)n1` (stereo not shown) | 0.5705 |
| 82 | `CC(C)c1ccc(C(O)Cn2c(=O)c(C#N)cn(C3CC3)c2=O)cc1` (stereo not shown) | -13.69 |
| 83 | `O=C(CN1CCCC1CC(=O)c1ccccc1)NCc1ccccn1` (stereo not shown) | 4.387 |
| 84 | `O=C(c1ccccc1F)N1CCCC1Cn1c(=O)oc2ccccc21` (stereo not shown) | -0.385 |
| 85 | `COc1ccnc(N2CCN(C(=O)NCc3ccc(C)s3)CC2)n1` | -10.87 |
| 86 | `COCC[C@]1(O)CCN(CC(=O)NCc2ccccn2)C[C@H]1C` | -12.72 |
| 87 | `O=C(NCCNc1cnccn1)N1CCc2ccccc2C1` | -9.372 |
| 88 | `O=C1CC(NCc2cnc(C3CCCCC3)nc2)CN1c1ccccc1` (stereo not shown) | 8.872 |
| 89 | `CC(=O)NCC(=O)N1C[C@@H](C)[C@@]2(CCN(c3ccsc3)C2=O)C1` | -8.505 |
| 90 | `[H][C@]12CC[C@](O)(CC1)C(CO)N2Cc1ccc(F)cc1` (stereo partly shown) | -31.34 |

The last 10 entries again:

With CC(C)c1n[nH]c(C2CN(C(=O)c3csnn3)CCO2)n1 (stereo not shown) the screen gave 0.5705%.
With CC(C)c1ccc(C(O)Cn2c(=O)c(C#N)cn(C3CC3)c2=O)cc1 (stereo not shown) the screen gave -13.69%.
With O=C(CN1CCCC1CC(=O)c1ccccc1)NCc1ccccn1 (stereo not shown) the screen gave 4.387%.
With O=C(c1ccccc1F)N1CCCC1Cn1c(=O)oc2ccccc21 (stereo not shown) the screen gave -0.385%.
With COc1ccnc(N2CCN(C(=O)NCc3ccc(C)s3)CC2)n1 the screen gave -10.87%.
With COCC[C@]1(O)CCN(CC(=O)NCc2ccccn2)C[C@H]1C the screen gave -12.72%.
With O=C(NCCNc1cnccn1)N1CCc2ccccc2C1 the screen gave -9.372%.
With O=C1CC(NCc2cnc(C3CCCCC3)nc2)CN1c1ccccc1 (stereo not shown) the screen gave 8.872%.
With CC(=O)NCC(=O)N1C[C@@H](C)[C@@]2(CCN(c3ccsc3)C2=O)C1 the screen gave -8.505%.
With [H][C@]12CC[C@](O)(CC1)C(CO)N2Cc1ccc(F)cc1 (stereo partly shown) the screen gave -31.34%.

The values are deposited in ChEMBL (CHEMBL3988442, “University of Dundee, Small-Polar-MMV Screening Library” (2021)).